Out of some 53,000 sequences screened, about 3,700 (7%) were called active.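 Rule for the calls: active = gene knockdowns whose robust z-score for IL-1 alpha signal is at least 2 or at most -2, so actives lie on both sides; inactive = the rest.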 Some of the results follow.
Experiment: Components of the Cytosolic LPS Sensing Pathway: Gene Identification via Genome-wide siRNA Screen;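 note: robust z of the log signal after scaling to non-targeting control siRNA wells of the plate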
Conditions: RAW264.7 macrophages, IL-1a HTRF, actives lie on both sides, screened at 100 nM (by protocol), cells primed 5 h with Pam3CSK4 first
How it was run: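 Mouse macrophage line RAW264.7 is transfected with siRNA (100 nM final), grown 48h, primed with TLR ligand Pam3CSK4 5 h and given intracellular LipidA 24 h. IL-1a in supernatant is read by HTRF and viability by luminescence.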

Sequence	z-score
CGAUAAAUCACCUCAAGAUTT against Kcnn4	inactive: -1.03
GGAUGUGGUGGUAUUAGACTT against Phykpl	active: 2.5
UACUUGUAGCCAUGGCUCUTT against Olfr685	inactive: 0.334
UGGUGGUGUUUUUUAACUCTT against Pdp2	inactive: 0.161
GGAUGUAUCUGAACAAUACTT against Mlst8	inactive: -0.464
GGAGAUUCGGAAAAUGUGUTT against Vac14	inactive: -1.79
GGUUCUUUGUGAACUUCCCTT against Cygb	inactive: 0.0783
CGCAAUAAAGAAGAUAAACTT against Slc35f3	inactive: -0.417
GAUCUUUGUCCUCAUUCUCTT against Olfr1206	inactive: -1.09
GCACGAGGAUUCAGAUAUCTT against Gusb	inactive: -0.449
GGAUCACAUACGUACACAATT against Dpp8	inactive: 0.301
GCUAGAUGCUAUGAAGCGATT against Ap3b1	inactive: -0.406
GGGCAACCUGUCACAUUAUTT against Spam1	inactive: 1.16
GCUCUACUGCGCUACCAAGTT against Fgf3	inactive: 0.315
CCACUAUGACUUCAGGUGUTT against Olfr1465	inactive: -0.137
GGAAAAGCUAAUCUUACUATT against Nop16	inactive: -0.77
CGGCUCCUUUCAUAUUACCTT against Akap7	inactive: -0.292
CGCCCAUGUACAGAUUUGUTT against Olfr429	active: -2.33
CGAUCCCAUGUUGCCUAAUTT against Fut11	inactive: -0.602
GGCUUGUUACCACAUGCUGTT against Fermt3	inactive: -1.46
GCCUAUGGGUCAUUUCAAATT against Dock11	inactive: -0.968
GCAGGGUAUUGUCAAUGGCTT against 0610040J01Rik	inactive: 0.103

Sequence	z-score
CCUUUACUGUCCAUUCCGATT against Stxbp2	inactive: -0.533
GGUUCUGUUAAUGUACCAUTT against Cd53	inactive: 0.833
GCCGAGCAGUUACUUGAGATT against Kif18b	inactive: -1.28
GGAGCUUCACUAAGUAACATT against Zfp239	inactive: -0.594
GGAAAGAAAAGCCUUAGAATT against Nbeal1	inactive: 0.386
GCGAGUCUAUGUGUUCCCUTT against Cox4i2	inactive: 0.187
GGCCAACUGAUUAAGAAACTT against Chrnb1	inactive: 0.264
GGUAUCAUGGAGGAGAUGGTT against Lhx9	inactive: -0.859
GGAGGCCAAAGGACUGAUCTT against Hectd4	inactive: 1.56
GGCCUUUAUCAGCGGUGAUTT against Srd5a2	inactive: -1.87
GGUGUCUUUGCUCUUAAUUTT against Sike1	inactive: 0.277
CCAUGUCAACGACCAUCAUTT against Glis2	inactive: 0.189
GGAAAUAUAUGUCAUGUCATT against Nars	active: 2.37
GCCAAAGUAGCAUUAGUGATT against Dip2b	inactive: -1.39
GGUGAACUUUACCUUCAACTT against Mov10	inactive: 0.867
GGAGGACAGUAGGUGGCAATT against Hexim1	inactive: -0.218
GCGAUUUAUUGCCAAGCCCTT against Cers5	inactive: 0.596
GGUCAAAUAUGGAGAUCUUTT against Atp2b3	inactive: 1.39
GCUGAUGUCUCAACCUAGATT against Zkscan2	inactive: -1.72
GGUGGAGUUUCUGAAACAGTT against Supt16	inactive: -0.861
GGUUUACCAGAAACACUGATT against Fam162a	inactive: 1.37
CCCAAUGGUUGUACCAAUATT against Zp3r	inactive: 0.656

Sequence	z-score
GGGAACUCAAAGAAGAGAGTT against Lysmd2	inactive: 0.515
GUGGAUUGAGGAUGGAAUCTT against Gng13	inactive: 1.86
GGUCACAUGUCUCUUGUGATT against Ankrd33	inactive: -0.661
GCUAUUCUGAUGCGUGGAGTT against Coq2	inactive: -1.24
GCUAGUCCGGUACUUCUUGTT against Bckdk	inactive: 0.603
CGUGACUACACCAUCAAAGTT against Adgrg1	inactive: 1.69
GGAAAGGUUUUCAUCAACATT against Pih1d1	inactive: -1.61
CGCGGAAACUCUCCACUUATT against Psme4	inactive: -1.18
CGGACUCAGUCAUCAUUGCTT against Atf7	inactive: -1.46
GUAAAUCCAAUUCCUCAGCTT against Vax1	inactive: 0.152
GGUGCAGAAAGAGAGAAGATT against Mtpap	inactive: 0.019
GGCUGCACUAGACGAAUGCTT against Rrp1b	inactive: 0.362
GGUCAUCGACUUCUCCAAGTT against Grik5	inactive: 0.99
GGCAUUGUCACUGUGUCUGTT against Sphk2	inactive: -1.59
GCACACUACGGUCCAUCUCTT against Xkr4	inactive: -1.19
CGAAAAAAAGUCCAUAAAGTT against Nifk	inactive: -0.0901
GGCUUUUAACACCUUCAUUTT against Clptm1l	inactive: 0.495
GGGAGAAACUAUUUAGUCUTT against Inhbe	inactive: 0.145
GGCGAGGAGAAAAGAGUUUTT against Wfdc12	inactive: 2
GGGAUGUCUUGGAACAUGCTT against Pate14	inactive: 1.19
GGACCAUGCUGGAUACUAUTT against Yrdc	inactive: 1.74
CCCAUUAUUAACGCGAAGGTT against Pfn4	inactive: 0.907

Looked up one by one from above:
Sequence	z-score
GGUCAUCGACUUCUCCAAGTT against Grik5	inactive: 0.99
GGGAUGUCUUGGAACAUGCTT against Pate14	inactive: 1.19
CGCGGAAACUCUCCACUUATT against Psme4	inactive: -1.18
GCUAUUCUGAUGCGUGGAGTT against Coq2	inactive: -1.24
GGCUGCACUAGACGAAUGCTT against Rrp1b	inactive: 0.362
GGACCAUGCUGGAUACUAUTT against Yrdc	inactive: 1.74

Following part:

Sequence	z-score
GCUGCUUAAUGCCAGGCGATT against Snapin	inactive: -0.251
GGAAAAGAAGAUGAACAAGTT against Slc24a1	inactive: 0.838
CCUUAACUCACUUCAUAAUTT against Vps35	inactive: 0.542
GGUUCUCAUGAACAGUGAGTT against Tm9sf4	inactive: 1.02
GGAUGACAACAACACUCUGTT against Cacna1s	inactive: -1.09
GCUCUUGGUCCGUCUUCAGTT against 6030452D12Rik	inactive: -1.76
GGAAGUACCAGGAAGCUGATT against Stmn4	inactive: -1.4
GGAAAAUAAGGACACUAGUTT against Zfx	inactive: -1.09
GCAGGAUCAGCUGUUCACATT against Wdr24	inactive: -1.7
GGGAAUCAGAUUUGACCUUTT against Mrpl19	inactive: -0.353
GGACACAAUGACAAAGUCCTT against Wdfy2	inactive: -1.51
GGGCUUCAUGGUUCAAACATT against Ppil3	inactive: -1.11
GGAGGUCCACCUCAUUCUGTT against Gdap1	inactive: -0.485
CCUAGAUUGAAAAUUGUCATT against Zfp974	inactive: -1.55
GCCUGGCAGAUAUCGCUCUTT against Homez	inactive: -0.556
GGUUGUGGACACAUCCAAATT against Aacs	active: 2.08
GGAAUCAUGCUGAAAGAGATT against Apom	inactive: -0.123
GGAACCUGGUAGGUCAGAATT against Olfr156	inactive: 0.421
GGCUGAAGAGCCUAGAGAATT against 1700120K04Rik	inactive: -0.124
GGUGGUUAAACCCAGACUGTT against 2310067E19Rik	inactive: 0.544
CCUCGUGUAAGUAUUUAGATT against Mrpl51	inactive: 0.512
GCCUACAACACAUUCAUUATT against A830039N20Rik	inactive: 0.982

Sequence	z-score
GGUUUCUCUCUACGCUAUGTT against Nrp2	inactive: -0.817
GGCAGGAAAGAAAAACGUATT against 4933402J07Rik	inactive: -0.145
GGUAUUCACUGCUUCAUCUTT against Ubap2	inactive: 0.65
GCUGGCUGCAUAAACUUGUTT against Lipg	inactive: 0.899
CCUGAGGUGCAGGACUAAUTT against Nars2	inactive: 0.589
GCCUUACACCUGAAAUCGUTT against Ubxn2b	inactive: -1.86
GCCUAUAGCACUGUGCCAUTT against Il17rd	inactive: -0.794
GGGUACGUUCAAGUGCUUCTT against Agtpbp1	inactive: 1.74
GGAUUCUUCACAGCGGAUGTT against Phyhd1	inactive: 0.0446
GGAAAAGGAGGAGAGUUAUTT against Nkapl	inactive: 0.153
GGGUAUGGUGGUCAAUAAATT against Gmnc	inactive: 0.646
GGCAACUUUUAUCAAAAUGTT against Stk-ps2	inactive: 0.122
GGAAAUCUGUGUGAUUGAATT against Pcca	inactive: -0.251
GUGAUUUGAGAUAAUCUCCTT against Zfp182	inactive: -0.476
GGAAGUAUUGACGAGUGGGTT against Orai3	inactive: 0.0813
GGAGGAACAUAUCAAGGAATT against Tmem143	active: 2.27
GGCCAAAUACCUUACCAAGTT against Pold2	inactive: 0.767
GGCAUUUUAUCUGUUAGACTT against Serpinh1	inactive: -0.824
GGCAACUAGCCCUAAAGGCTT against Tmem115	inactive: 1.05

Source: PubChem BioAssay AID1508600 (Functional Genomics Laboratory (NCATS/FGL), 2020)
